{"source": "PubChem BioAssay AID1224826 (NIAID, 2016)", "screen": "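Knock-downs that raise or lower Tnf reporter signal after endotoxin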 (primary screen)", "cell system": "RAW264.7 G9 macrophages from mouse bearing reporters for p65 (GFP) and the Tnf promoter (mCherry)", "knock-down reagent": "siRNA pool against mouse genes, 100 nM", "timing": "16 h of LPS stimulation, after 2 days of siRNA transfection", "challenge": "bacterial lipopolysaccharide (Salmonella minnesota R595), 10 ng/ml", "read-out": "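Imaged Tnf reporter mCherry in nuclei, minus background, normalised per plate to the median and expressed as robust z-scores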", "scale": "Tnf reporter robust z-score: higher = stronger Tnf promoter reporter signal after LPS", "call rule": "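a well counts as active at a score of -1.3 or below (Tlr4 knock-down control median) or above 3 (raised signal); controls and wells holding fewer than 50 cells are excluded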", "calls": "active = Tnf reporter clearly lowered or raised; inactive = no clear change in Tnf reporter", "note": "The deposit covers about 17,000 reagents; shown is a part drawn at random. Of all reagents, about 1,110 (6.6%) are marked active. 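Active means lowered or raised reporter signal; replicate intensities are raw and not normalised per plate.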 Not all columns of the deposit are shown."}
{"Target gene": "Ttyh2 (GeneID 117160)", "Tnf reporter robust z-score": -1.15, "fewer than 50 cells in well": "enough cells in well", "outcome": "inactive"}
{"Target gene": "Cnot8 (GeneID 69125)", "Tnf reporter robust z-score": 1.22, "fewer than 50 cells in well": "enough cells in well", "outcome": "inactive"}
{"Target gene": "Tssk2 (GeneID 22115)", "Tnf reporter robust z-score": 1.22, "fewer than 50 cells in well": "enough cells in well", "outcome": "inactive"}
{"Target gene": "Vps54 (GeneID 245944)", "Tnf reporter robust z-score": -0.1, "fewer than 50 cells in well": "enough cells in well", "outcome": "inactive"}

Records listed so far whose target name starts with T or t:
{"Target gene": "Ttyh2 (GeneID 117160)", "Tnf reporter robust z-score": -1.15, "fewer than 50 cells in well": "enough cells in well", "outcome": "inactive"}
{"Target gene": "Tssk2 (GeneID 22115)", "Tnf reporter robust z-score": 1.22, "fewer than 50 cells in well": "enough cells in well", "outcome": "inactive"}

Further results:
{"Target gene": "Dbi (GeneID 13167)", "Tnf reporter robust z-score": -0.95, "fewer than 50 cells in well": "enough cells in well", "outcome": "inactive"}
{"Target gene": "Dusp5 (GeneID 240672)", "Tnf reporter robust z-score": 1.13, "fewer than 50 cells in well": "enough cells in well", "outcome": "inactive"}
{"Target gene": "Nbeal1 (GeneID 269198)", "Tnf reporter robust z-score": 0.99, "fewer than 50 cells in well": "enough cells in well", "outcome": "inactive"}
{"Target gene": "Magea7-ps (GeneID 17143)", "Tnf reporter robust z-score": 0.31, "fewer than 50 cells in well": "enough cells in well", "outcome": "inactive"}
{"Target gene": "Chd8 (GeneID 67772)", "Tnf reporter robust z-score": -0.52, "fewer than 50 cells in well": "enough cells in well", "outcome": "inactive"}
{"Target gene": "Or5al5 (GeneID 257950)", "Tnf reporter robust z-score": -0.12, "fewer than 50 cells in well": "enough cells in well", "outcome": "inactive"}
{"Target gene": "Vcan (GeneID 13003)", "Tnf reporter robust z-score": 0.64, "fewer than 50 cells in well": "enough cells in well", "outcome": "inactive"}
{"Target gene": "Inpp4b (GeneID 234515)", "Tnf reporter robust z-score": 0.09, "fewer than 50 cells in well": "enough cells in well", "outcome": "inactive"}
